The target in the experiment is Cas6f (previously Csy4) from Pectobacterium atrosepticum (P. atrosepticum) (UniProt Q6D0W5). Kind of experiment: co-IP; both proteins co-expressed in E. coli; soluble fraction on anti-FLAG agarose overnight at 4°C; washed five times with 0.05 M Tris-HCl pH 7.4, 0.3 M NaCl; eluted with FLAG peptide; western blot for FLAG and His6; FLAG-tagged protein as bait, His6-tagged protein as prey. (In western blotting, separated proteins are transferred to a membrane and probed.)

No constants are given. Whether binding was seen depends on the method and setting. Binding seen in cells or lysates may run through a third protein. Some results given as binding are weak or reduced against the parent protein; the word gives no strength.

B1: Cas6f (previously Csy4) from Pectobacterium atrosepticum (protein, UniProt Q6D0W5 1-184)
chain: MDHYIDIRVQPDPEFTASQLLNALFAKLHRVLGQLANGKIGISFPEVGKTLGECLRLHGTEDALSTLEKTSWLKGLRDYTQVSECKVVPNGVKFRTVRRVQLKSSAERLRRRSVSKGWLTAAEAAARIPDAVEKRSALPFVQIKSLSNGQMFFVFVEHGPLQNAPTAGRFSSYGLSTEATVPWF
Turning to B1, the binding result is recorded as “binds”.

The values are drawn from paper PMC3985639, “A widespread bacteriophage abortive infection system functions through a Type IV toxin–antitoxin mechanism” (Nucleic Acids Research, 2014).
